Assay results as given in EP0408371B1 (SMITHKLINE BEECHAM CORPORATION, priority 1989, dated 1994).

Experiment: peptide synthesis
Conditions: coupling step

Compared with “BOC-(γ-OBz)Glu-(β-OBz)Asp-Sub-(ε-Z)Lys-COOBz”, BOC-Asp-(β-OBz)-Sub-Lys-(ε-Z)COOBz is higher in step yield: 68% for the first, 73% for the second.

For “pGlu-(γ-OBz) Glu-(β-OBz) Asp-Sub-(ε-Z) Lys-COOBz”, the step yield was 69%.
